Assay results as given in the supplement of paper PMC5949888.
Most values lie at the floor of the assay. Slopes are relative: functional sequences can read slightly below zero.

test system: Saccharomyces cerevisiae PS128 hsf1 delta, HSF1(1-493) fusion; experiment: growth estimate (transactivation domain function in HSF1 fusion, heat-shock survival) (a.u. (slope of normalised read count over time)); higher = stronger growth at 37°C, i.e. more transactivation activity; conditions: library: random library
Procedure: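 Random 60-nt DNA library encoding peptides of up to 20 aa, fused to the C-terminus of yeast HSF1 residues 1-493 (C-terminal TAD deleted) and expressed from the native HSF1 promoter on a CEN plasmid in hsf1-deleted S. cerevisiae PS128. Cells were selected at 37°C on -trp 5-FOA plates for 0, 2, 4, 6 and 8 days and amplicons were sequenced. Growth estimate is the slope of a robust linear fit of total-sum-normalised read counts (normalised to the first time point) over time, using at least 2 replicates. Sequences are classed functional (TAD activity) above a threshold of -0.13, set from stop-codon control sequences.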

Substance	growth estimate
GQLHCGISARSIEEL	< -0.25
GQLIRVR	< -0.25
GQLRMLRGVAKRRSYSPG	< -0.25
GQLVRNRTNRRIPMFCTLGR	< -0.25
GQPLDRSGLQGKNTVAGCLD	< -0.25
GQRDTPVRGGSRMYCSSVTA	< -0.25
GQRGDFRQW	< -0.25
GQRLFRAVGSTQDLRLAPYK	< -0.25
GQRRLLSGWRRDLPGPIKAV	< -0.25
GQSGLLSIQYTAL	< -0.25
GQSGTGGLE	< -0.25
GQSTGPFTCTIANFLSGLA	< -0.25
GQSVHAH	< -0.25
GQTFS	< -0.25
GQTNLCRSPTLWRYGLARNV	< -0.25
GQTPFCSELVRRL	< -0.25
GQVTKRWLYTHLAGYLHFYV	< -0.25
GQWLCLLAWGGPDRSPGNWL	< -0.25
GRAARSGWITSSTLLRAFTA	< -0.25
GRAGMRGG	< -0.25
GRAKYGDQGICVGEG	< -0.25
GRAMQESRSAADL	< -0.25
GRANCMTFAGWTSHA	< -0.25
GRAPRYLTCRKCSIHGHYCY	< -0.25

Substance	growth estimate
GRCRRYHDTV	< -0.25
GRDALWRDFWRGLPAEWDGR	< -0.25
GRDSSDHRPQAPDVPSL	< -0.25
GRERTM	< -0.25
GRETRVTGSRPRDTGAPRPL	< -0.25
GREWTSRLVFREVVRRFMLN	< -0.25
GRFAPRSIDLLQNPSQSSA	< -0.25
GRFGRVARCLTYDVQDVRGG	< -0.25
GRFGVHKDGRFFGY	< -0.25
GRFIIALSVMGEEASGVGHD	< -0.25
GRFMFDRI	< -0.25
GRGCELSSSGCTWMQFQ	< -0.25
GRGFHRPRVLVELQAIPGRT	< -0.25
GRGFVAIIRMACARLLLILA	< -0.25
GRGLAQADGSSRVKTGHSTH	< -0.25
GRGLRVYNWAGSIFGFRLAV	< -0.25
GRGRHEPTVMPRAVAGLCHP	< -0.25
GRGWDCQRTRSQRLLYYRRS	< -0.25
GRGYYDVLRAGGVGVPLSAG	< -0.25
GRHEERPFGAVDGPRHTPSA	< -0.25
GRIAQAVCWGNAISERKPRT	< -0.25
GRIMAVRV	< -0.25
GRIRHGGGKPRQKIDV	< -0.25
GRKVITGVDFGGGSSIR	< -0.25

Substance	growth estimate
GRLFMPTGTRASPLVRRDRQ	< -0.25
GRLFWAFRRYYMANPVSRQC	< -0.25
GRLGLLLVVGRECA	< -0.25
GRLIYF	< -0.25
GRLMS	< -0.25
GRLSLDAPAY	< -0.25
GRLSLINPLGDGSSDRADWN	< -0.25
GRLSLVQTFSANQARGLRAN	-0.243
GRLVLLLGAQARWVSLARCS	< -0.25
GRLVRWFLGDDLLTDRVLRT	-0.239
GRLYY	< -0.25
GRMSHGDTSMLVM	< -0.25
GRNLRPLVSIGYASTNTQSA	< -0.25
GRPACGR	< -0.25
GRPHLSSMSYQNWFKGHANV	< -0.25
GRPLCIGGGGRLQTLSLSPR	< -0.25
GRPNERPLPSN	< -0.25
GRPQLRPKQAERRRLCGQAR	< -0.25
GRPVLECDSTLAEWPGFMLV	< -0.25
GRPWSAGPRGHYT	< -0.25
GRQGR	< -0.25
GRQRARQIRG	< -0.25
GRQTFCTDVRLGAPRMRQSM	< -0.25
GRRASILH	-0.245

Substance	growth estimate
GRRCGRVVTVLIKHLSFSVV	< -0.25
GRRENRKGLRNRNVTPCCEL	< -0.25
GRRMGAAVN	< -0.25
GRRRSVINNKVQWGIERRGQ	< -0.25
GRRRVRFD	< -0.25
GRRSRHHVKARGTCTKGHTS	< -0.25
GRSAGVLAHLKPSVGTPWLE	< -0.25
GRSKGTTRRLRSAGEVMRSR	< -0.25
GRSLLEVGPTRWCKWS	< -0.25
GRSPTPRDPSVPGAIRL	< -0.25
GRSSLNLRLISS	< -0.25
GRSTARHSLASKLLAMVQDQ	< -0.25
GRSYSASFACLARKELVAEN	< -0.25
GRT	< -0.25
GRTVTARQSR	< -0.25
GRVA	< -0.25
GRVAGGLDSPARLPLKGPGE	< -0.25
GRVCKGIRRRQKQVRIGLVR	< -0.25
GRVFNVESVVGPSAHVLMGI	< -0.25
GRVGLENEVPTFRCSGSKS	< -0.25
GRVRFCRKQ	< -0.25
GRYRRSSGRNNQPFSRSH	< -0.25
GSACFLPLPLPLHWRNLDSG	< -0.25

An excerpt of these results, in markdown:

| Substance | growth estimate |
| --- | --- |
| GRSLLEVGPTRWCKWS | < -0.25 |
| GRTVTARQSR | < -0.25 |
| GRVRFCRKQ | < -0.25 |
